Results on 30 molecules are retold here after EP4633740A2.

The chains behind the UniProt entries cited, without tags or fusion partners. Where a name states a change or a piece, a line headed by the entry shows the natural chain unless it says otherwise.
UniProt P06756: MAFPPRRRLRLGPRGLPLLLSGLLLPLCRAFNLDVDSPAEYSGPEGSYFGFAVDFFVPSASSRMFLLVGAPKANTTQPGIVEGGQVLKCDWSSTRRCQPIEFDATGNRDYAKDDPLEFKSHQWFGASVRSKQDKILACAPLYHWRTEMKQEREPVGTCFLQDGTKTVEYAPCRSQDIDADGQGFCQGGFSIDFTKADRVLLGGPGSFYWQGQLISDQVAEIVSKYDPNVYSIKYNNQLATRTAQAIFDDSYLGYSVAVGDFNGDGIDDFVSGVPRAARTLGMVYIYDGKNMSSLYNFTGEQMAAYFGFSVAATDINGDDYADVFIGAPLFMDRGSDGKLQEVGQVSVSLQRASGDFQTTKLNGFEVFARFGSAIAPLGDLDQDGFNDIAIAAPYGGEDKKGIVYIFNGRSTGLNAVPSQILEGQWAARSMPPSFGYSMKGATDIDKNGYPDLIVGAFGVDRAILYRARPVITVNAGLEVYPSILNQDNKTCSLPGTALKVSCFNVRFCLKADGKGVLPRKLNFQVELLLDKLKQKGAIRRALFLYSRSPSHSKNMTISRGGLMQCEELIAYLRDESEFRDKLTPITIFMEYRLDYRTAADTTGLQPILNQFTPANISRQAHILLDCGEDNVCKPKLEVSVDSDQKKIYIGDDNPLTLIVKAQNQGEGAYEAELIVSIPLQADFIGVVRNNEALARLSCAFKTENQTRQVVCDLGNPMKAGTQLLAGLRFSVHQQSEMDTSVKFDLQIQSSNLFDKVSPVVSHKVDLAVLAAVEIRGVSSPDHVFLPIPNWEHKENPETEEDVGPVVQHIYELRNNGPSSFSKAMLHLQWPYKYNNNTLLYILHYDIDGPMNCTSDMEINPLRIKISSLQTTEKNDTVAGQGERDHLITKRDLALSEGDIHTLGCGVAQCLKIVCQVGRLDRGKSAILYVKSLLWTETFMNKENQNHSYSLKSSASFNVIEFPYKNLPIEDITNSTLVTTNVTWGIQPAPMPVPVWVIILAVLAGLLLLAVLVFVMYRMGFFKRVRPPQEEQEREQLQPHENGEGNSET

This test deals with human ITGAV/ITGB6 dimer protein (human) (UniProt P06756). Kind of test: colorimetric ELISA, periplasmic extracts.

Changes are numbered by the printed parent chain. Results are given in words; binding and its absence hold for the method and conditions named. Some results given as binding are weak or reduced against the parent protein; the word gives no strength.

B1: SEQ ID NO 34 (VHH)
VHH: QVQLQESGGGLVQAGETLGLSCVVSGNIRRFDSMGWYRQAPGKSREMVALITSGSNTAYPDSVKGRFTISRDNAENTFYLQMNSLKPEDTAVYYCSANIYVDSYHYTTYWGQGTQVTVSS
Take B1: the binding entry is reported as “binds”.

B2: SEQ ID NO 1 (VHH)
VHH: QVQLQESGGGLVQAGGSLRLSCAASGSIFSINAMGWYRQAPGNQREMVALITSGSNTAYPDSVKGRFTISRDNAENTFYLQMNSLKPEDTAVYYCSANIYVDSYHYTTYWGQGTQVTVSS
In the case of B2, the binding entry is “binds”.

B3: SEQ ID NO 14 (VHH)
VHH: B2 VHH with L50H, S53G, S55G, N56S, T57G, T77M, V101R, H105R
With B3, the binding result was “binds”.

B4: SEQ ID NO 22 (VHH)
VHH: B2 VHH with N32D, M47L, L50H, N56S, T57A, A58N, N83D, S96Y, V101S, Y104F
For B4, the binding entry is given as “binds”.

B5: SEQ ID NO 33 (VHH)
VHH: B2 VHH with M47L, L50H, S55D, S96Y, V101A, H105R
With B5, the binding entry is reported as “binds”.

B6: SEQ ID NO 32 (VHH)
VHH: B2 VHH with A14P, I31M, M47L, L50H, S55N, T57A, A58N, S96Y, V101A, H105R
B6: the binding entry was “binds”.

B7: SEQ ID NO 30 (VHH)
VHH: B2 VHH with A14P, N32D, M47L, L50H, S55G, N56S, V101G, H105R
For B7, the binding result was “binds”.

B8: SEQ ID NO 3 (VHH)
VHH: B2 VHH with N32D, M47L, L50H, S55G, N56S, V101G, H105R
As to B8, the binding entry was “binds”.

B9: SEQ ID NO 15 (VHH)
VHH: B2 VHH with N32D, M47L, L50H, T52I, S55N, N56S, S96Y, V101S, Y104S, H105R
B9: the binding entry is reported as “binds”.

B10: SEQ ID NO 16 (VHH)
VHH: B2 VHH with M47L, L50H, S55D, S96Y, V101G, Y104N
For the molecule B10, the binding result is reported as “binds”.

B11: SEQ ID NO 11 (VHH)
VHH: B2 VHH with N32D, M47L, L50H, T52I, S55N, N56S, S96Y, V101S, H105R, Y109H
B11: the binding result is given as “binds”.

B12: SEQ ID NO 35 (VHH)
VHH: B2 VHH with I31M, M47L, L50H, S55N, T57A, A58N, S96Y, V101A, H105R
Turning to B12, the binding entry is listed as “binds”.

B13: SEQ ID NO 20 (VHH)
VHH: B2 VHH with L11T, A14I, N32D, M47L, L50H, S55G, N56S, V101G, H105R
Consider B13, for which the binding result is “binds”.

B14: SEQ ID NO 23 (VHH)
VHH: B2 VHH with I31M, M47L, L50H, S55N, N56S, A58S, V63T, S96Y, V101G, Y104S
On to B14, for which the binding result is reported as “binds”.

B15: SEQ ID NO 28 (VHH)
VHH: B2 VHH with N32D, M47L, L50H, T52I, S55N, N56S, S96Y, H105R
Turning to B15, the binding entry is “binds”.

B16: SEQ ID NO 12 (VHH)
VHH: B2 VHH with S27T, G35A, E46D, L50H, S55G, N56S, A58N, V101R
For the molecule B16, the binding result is recorded as “binds”.

B17: SEQ ID NO 19 (VHH)
VHH: B2 VHH with A14P, I28S, F29S, G35A, E46D, L50H, S55G, N56S, A58N, V101R
On to B17, for which the binding entry is on record as “binds”.

B18: SEQ ID NO 13 (VHH)
VHH: B2 VHH with G16D, I31N, M47L, S55G, N56S, A58N, V101I, H105R
As for B18, the binding entry was “binds”.

B19: SEQ ID NO 18 (VHH)
VHH: QVQLQESGGGLVQPGGSLRLSCAASGSIFSIDAMGWYRQGPGNQRELVAHITSGGSTSYIDSVKGRFTISRDNAENTFYLQMNSLKPEDTAVYYCSANIYGDSYRYTTYWGRGTQVTVSS
Take B19: the binding entry is “binds”.

B20: SEQ ID NO 25 (VHH)
VHH: QVQLQESGGGLVQTGGSLRLSCAASGSIFSIDAMGWYRQAPGDQRELVAHMSTHGTTNYPDSVKGRFTISRDNAENTFYLQMNSLKPEDTAVYYCSANIYVDSYRYTTYWGQGTQVTVSS
In the case of B20, the binding result is on record as “binds”.

B21: SEQ ID NO 17 (VHH)
VHH: QVQLQESGGGLVQAGGSLRLSCAASGSIFSMNAMGWYRQAPGNQHELVAHIISGGSGNYPDSVKGRFTISKDNAENTFYLQMNSLKPEDTAVYYCYANIYGDKDRYTTYWGQGTQVTVSS
As for B21, the binding entry is listed as “binds”.

B22: SEQ ID NO 2 (VHH)
VHH: B21 VHH with H45R, L47I, S53G, G57T, R105H
Regarding B22, the binding entry is “binds”.

B23: SEQ ID NO 26 (VHH)
VHH: B21 VHH with H45R
With B23, the binding result is listed as “binds”.

B24: SEQ ID NO 24 (VHH)
VHH: QVQLQESGGGLVQAGGSLRLSCAASGSIFSIDAMGWYRQAPGNQRELVAHIISGNSTAYPDSVKGRFTISRDNAENTSYLQMNSLKPEDTAVYYCYANIYSDSYRYTTHWGQGTQVTVSS
With B24, the binding entry is “binds”.

B25: SEQ ID NO 27 (VHH)
VHH: QVQLQESGGGLVQAGGSLELSCAASGIIPSLDEMSWYRQAPGNQRELVAHITSGGSTAYPDSVKGRFTISRDNAENTFYLQMNSLKPEDTAVYYCSANIYGDSYRYTTYWGQGTQVTVSS
As for B25, the binding result is recorded as “binds”.

B26: SEQ ID NO 10 (VHH)
VHH: QVQLQESGGGNVQAGGSLRLSCAASGSIFFINTMGWYRQAPGNQRELVAHITSGNSTSYPDSTKGRFTISRDNAENTFYLQMNSLKPEDTAVYYCYANIYGDSSHYTTYWGQGTQVTVSS
As for B26, the binding result is given as “binds”.

B27: SEQ ID NO 29 (VHH)
VHH: B26 VHH with N11L, A23T, F30S, I31M, T33A, N55D
Regarding B27, the binding entry is listed as “binds”.

B28: SEQ ID NO 21 (VHH)
VHH: B24 VHH with G16E, S78F, Y104S, H109Y
Regarding B28, the binding result was “binds”.

B29: SEQ ID NO 36 (VHH)
VHH: QVQLQESGGGLVQTGGSLRLACAASVSIASINFIGWYRQAPGNQREWVATVSSGDGTNYADSVKGRFTISRDNAKNTVYLQMNSLEPEDTAVYYCNVKQRGTYWGQGTQVTVSS
In the case of B29, the binding result is “binds”.

B30: SEQ ID NO 37 (VHH)
VHH: B29 VHH with T14A, E86K
With B30, the binding result is on record as “binds”.
